From paper PMC9873792
No constants are given. Whether binding was seen depends on the method and setting. Binding seen in cells or lysates may run through a third protein. Some entries that bind do so weakly or less than the wild type.

Sequences of proteins named here, by UniProt entry; tags and fusion partners are left off.
UniProt P54578: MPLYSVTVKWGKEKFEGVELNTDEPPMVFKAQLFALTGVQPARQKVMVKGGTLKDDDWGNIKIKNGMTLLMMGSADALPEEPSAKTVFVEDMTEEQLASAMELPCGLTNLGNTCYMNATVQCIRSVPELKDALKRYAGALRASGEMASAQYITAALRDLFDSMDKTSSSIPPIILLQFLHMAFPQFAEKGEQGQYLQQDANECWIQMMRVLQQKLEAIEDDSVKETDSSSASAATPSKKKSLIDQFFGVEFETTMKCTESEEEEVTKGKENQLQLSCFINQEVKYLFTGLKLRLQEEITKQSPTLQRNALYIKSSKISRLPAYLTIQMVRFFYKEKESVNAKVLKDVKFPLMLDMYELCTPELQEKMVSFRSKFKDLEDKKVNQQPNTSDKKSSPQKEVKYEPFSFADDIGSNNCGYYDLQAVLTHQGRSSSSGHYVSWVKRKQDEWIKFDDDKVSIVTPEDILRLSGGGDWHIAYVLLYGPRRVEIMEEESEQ

Target: 3×Flag-USP14 (ubiquitin-specific peptidase 14) (UniProt P54578)
Experiment: co-IP; Flag-USP14 and HA-JNK co-expressed in HEK293T cells; lysis buffer 20 mM Tris-HCl pH 7.4, 150 mM NaCl, 0.5% Triton X-100; antibody 12 h at 4 °C, protein A/G magnetic beads; western blot

binding: binds
Substance: 3×HA-JNK2 (c-Jun N-terminal kinase 2) (from UniProt P45984 1-424) (enzyme)
